These results are taken from patent US20190055299A1 (University of Texas, published 2019).

T1: CD123 recombinant protein fused to Fc (UniProt P26951 19-305)
T1 construct: Bought staining reagent; also called CD123 Recombinant fused to Fc; Sino biologicals 10518-H03H-20; not shown: Fc part
T1 sequence (looked up): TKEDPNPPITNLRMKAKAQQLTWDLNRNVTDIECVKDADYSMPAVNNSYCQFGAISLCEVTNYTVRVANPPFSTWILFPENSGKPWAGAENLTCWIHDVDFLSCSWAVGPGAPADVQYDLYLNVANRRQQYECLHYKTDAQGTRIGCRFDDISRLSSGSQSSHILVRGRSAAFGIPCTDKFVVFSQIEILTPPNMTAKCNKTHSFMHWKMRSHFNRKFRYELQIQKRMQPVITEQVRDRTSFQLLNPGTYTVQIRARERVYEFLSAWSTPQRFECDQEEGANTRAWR

B1: CAR 6 (chimeric CD123-specific CAR with chimeric scFv) (other)
chain: DVQITQSPSYLAASPGETITINCRASKSISKDLAWYQEKPGKTNKLLIYSGSTLQSGIPSRFSGSGSGTDFTLTISSLEPEDFAMYYCQQHNKYPYTFGGGTKLEIKGSTSGSGKPGSGEGSTKGQVQLQQPGAELVKPGAPVKLSCKASGYTFTNYWMNWIKQRPGRGLEWIGRIDPSDSESHYNQKFKDKATLTVDKSSNTAYIQLSSLTSEDSAVYYCARYDYDDTMDYWGQGTSVTVSSKPTTTPAPRPPTPAPTIASQPLSLRPEACRPAAGGAVHTRGLDFACDIYIWAPLAGTCGVLLLSLVITLYCNHRNRSKRSRGGHSDYMNMTPRRPGPTRKHYQPYAPPRDFAAYRSRVKFSRSADAPAYQQGQNQLYNELNLGRREEYDVLDKRRGRDPEMGGKPRRKNPQEGLYNELQKDKMAEAYSEIGMKGERRRGKGHDGLYQGLSTATKDTYDALHMQALPPR
notes: Chimeric antigen receptor on human T cells with a mixed VH/VL scFv, CD8alpha hinge, CD8 TM, and CD28 and CD3zeta endodomains; The entry may include a signal peptide; also called chimeric CAR
B2: CAR 5 (chimeric CD123-specific CAR with chimeric scFv) (other)
chain: DVQITQSPSYLAASPGETITINCRASKSISKDLAWYQEKPGKTNKLLIYSGSTLQSGIPSRFSGSGSGTDFTLTISSLEPEDFAMYYCQQHNKYPYTFGGGTKLEIKGSTSGSGKPGSGEGSTKGQIQLVQSGPELKKPGETVKISCKTSGYVFTNYGMNWVKQAPGKGFKWMGWMNTNTGEPTSLEDFKGRFAFSLETSASTAYLQINNLKNDDTATYFCARSGGYDPMDYWGQGTSVTVSSKPTTTPAPRPPTPAPTIASQPLSLRPEACRPAAGGAVHTRGLDFACDIYIWAPLAGTCGVLLLSLVITLYCNHRNRSKRSRGGHSDYMNMTPRRPGPTRKHYQPYAPPRDFAAYRSRVKFSRSADAPAYQQGQNQLYNELNLGRREEYDVLDKRRGRDPEMGGKPRRKNPQEGLYNELQKDKMAEAYSEIGMKGERRRGKGHDGLYQGLSTATKDTYDALHMQALPPR
notes: Chimeric antigen receptor on human T cells; The scFv mixes VH and VL of two different anti-CD123 mAbs (26292, 32701, 32703, 32716), with CD8alpha hinge, CD8 TM, and CD28 and CD3zeta endodomains; also called chimeric CAR
B3: CAR 7 (chimeric CD123-specific CAR with chimeric scFv) (other)
chain: DVQITQSPSYLAASPGETITINCRASKSISKDLAWYQEKPGKTNKLLIYSGSTLQSGIPSRFSGSGSGTDFTLTISSLEPEDFAMYYCQQHNKYPYTFGGGTKLEIKGSTSGSGKPGSGEGSTKGQIQLVQSGPELKKPGETVKISCKASGYIFTNYGMNWVKQAPGKSFKWMGWINTYTGESTYSADFKGRFAFSLETSASTAYLHINDLKNEDTATYFCARSGGYDPMDYWGQGTSVTVSSKPTTTPAPRPPTPAPTIASQPLSLRPEACRPAAGGAVHTRGLDFACDIYIWAPLAGTCGVLLLSLVITLYCNHRNRSKRSRGGHSDYMNMTPRRPGPTRKHYQPYAPPRDFAAYRSRVKFSRSADAPAYQQGQNQLYNELNLGRREEYDVLDKRRGRDPEMGGKPRRKNPQEGLYNELQKDKMAEAYSEIGMKGERRRGKGHDGLYQGLSTATKDTYDALHMQALPPR
notes: as for B1
B4: CAR 8 (chimeric CD123-specific CAR with chimeric scFv) (other)
chain: DIVLTQSPASLAVSPGQRATISCRASESVDNYGNTFMHWYQQKPGQPPKLLIYRASNLESGIPARFSGSDSRTDFTLTINPVEADDVATYYCQQSKEDPPTFGAGTKLELKGSTSGSGKPGSGEGSTKGQIQLVQSGPELKKPGETVKISCKASGYIFTNYGMNWVKQAPGKSFKWMGWINTYTGESTYSADFKGRFAFSLETSASTAYLHINDLKNEDTATYFCARSGGYDPMDYWGQGTSVTVSSKPTTTPAPRPPTPAPTIASQPLSLRPEACRPAAGGAVHTRGLDFACDIYIWAPLAGTCGVLLLSLVITLYCNHRNRSKRSRGGHSDYMNMTPRRPGPTRKHYQPYAPPRDFAAYRSRVKFSRSADAPAYQQGQNQLYNELNLGRREEYDVLDKRRGRDPEMGGKPRRKNPQEGLYNELQKDKMAEAYSEIGMKGERRRGKGHDGLYQGLSTATKDTYDALHMQALPPR
notes: as for B1
B5: CAR 2 (regular CD123-specific CAR) (other)
chain: DIVLTQSPASLAVSPGQRATISCRASESVDNYGNTFMHWYQQKPGQPPKLLIYRASNLESGIPARFSGSDSRTDFTLTINPVEADDVATYYCQQSKEDPPTFGAGTKLELKGSTSGSGKPGSGEGSTKGQIQLVQSGPELKKPGETVKISCKTSGYVFTNYGMNWVKQAPGKGFKWMGWMNTNTGEPTSLEDFKGRFAFSLETSASTAYLQINNLKNDDTATYFCARSGGYDPMDYWGQGTSVTVSSKPTTTPAPRPPTPAPTIASQPLSLRPEACRPAAGGAVHTRGLDFACDIYIWAPLAGTCGVLLLSLVITLYCNHRNRSKRSRGGHSDYMNMTPRRPGPTRKHYQPYAPPRDFAAYRSRVKFSRSADAPAYQQGQNQLYNELNLGRREEYDVLDKRRGRDPEMGGKPRRKNPQEGLYNELQKDKMAEAYSEIGMKGERRRGKGHDGLYQGLSTATKDTYDALHMQALPPR
notes: Chimeric antigen receptor on human T cells with CD8alpha hinge, CD8 TM, and CD28 and CD3zeta endodomains; The entry may include a signal peptide; also called Regular CAR
B6: CAR 4 (regular CD123-specific CAR) (other)
chain: B4 chain with P15L, D70G, K96N
notes: as for B5
B7: CAR 3 (regular CD123-specific CAR) (other)
chain: DIVMTQAAPSVPVTPGESVSISCRSNKSLLHSNGNTYLYWFLQRPGQSPQLLIYRMSNLASGVPDRFSGSGSGTAFTLRISRVEAEDVGVYYCMQHLEYPYTFGGGTKLEIKGSTSGSGKPGSGEGSTKGQVQLQQPGAELVKPGAPVKLSCKASGYTFTNYWMNWIKQRPGRGLEWIGRIDPSDSESHYNQKFKDKATLTVDKSSNTAYIQLSSLTSEDSAVYYCARYDYDDTMDYWGQGTSVTVSSKPTTTPAPRPPTPAPTIASQPLSLRPEACRPAAGGAVHTRGLDFACDIYIWAPLAGTCGVLLLSLVITLYCNHRNRSKRSRGGHSDYMNMTPRRPGPTRKHYQPYAPPRDFAAYRSRVKFSRSADAPAYQQGQNQLYNELNLGRREEYDVLDKRRGRDPEMGGKPRRKNPQEGLYNELQKDKMAEAYSEIGMKGERRRGKGHDGLYQGLSTATKDTYDALHMQALPPR
notes: as for B5

Substitutions are numbered along the chain they refer to.

The experiment deals with T1, CD123 recombinant protein fused to Fc. Briefly: flow cytometry, day 21; CAR T cells stained with CD123-Fc, then anti-Fc and anti-CD3. An excerpt: CAR plasmids (typical representation of CAR plasmid is given in FIG. 3B, left) along with transposase SB11 (FIG. 3B, right) were electroporated into CD56⁺ NK cell depleted PBMC and expanded on Clone1-CD123 at 2:1 AaPC:T cell ratio in presence of recombinant cytokines IL2 and IL-21. T cell cultures were stimulated with AaPC and surface phenotyped every 7 days starting from day 1. CAR expression was detected with CD123 recombinant protein fused to Fc followed by serial staining with antibodies specific to Fc and CD3. […] Chimeric CARs expanded at similar rates as regular CARs (FIGS. 4B and 4C).
(In general: In flow cytometry, cells or beads pass a laser one at a time.)
In the case of B1, the binding result is reported as “binds”. As to B2, the binding result was “binds”.

As to B3, the binding result is recorded as “binds”. In the case of B4 it was “binds”; in that of B5, “binds”; in that of B6, “binds”. For B7, the binding result is reported as “binds”.
